The structures appear in SMILES notation. The structures given here were assigned with low confidence; some may be wrong.

Protein sequences, listed by entry. Tags and fused reporters are not part of them. Residues count along the entry.
UniProt P19099, 25-503 limits assumed: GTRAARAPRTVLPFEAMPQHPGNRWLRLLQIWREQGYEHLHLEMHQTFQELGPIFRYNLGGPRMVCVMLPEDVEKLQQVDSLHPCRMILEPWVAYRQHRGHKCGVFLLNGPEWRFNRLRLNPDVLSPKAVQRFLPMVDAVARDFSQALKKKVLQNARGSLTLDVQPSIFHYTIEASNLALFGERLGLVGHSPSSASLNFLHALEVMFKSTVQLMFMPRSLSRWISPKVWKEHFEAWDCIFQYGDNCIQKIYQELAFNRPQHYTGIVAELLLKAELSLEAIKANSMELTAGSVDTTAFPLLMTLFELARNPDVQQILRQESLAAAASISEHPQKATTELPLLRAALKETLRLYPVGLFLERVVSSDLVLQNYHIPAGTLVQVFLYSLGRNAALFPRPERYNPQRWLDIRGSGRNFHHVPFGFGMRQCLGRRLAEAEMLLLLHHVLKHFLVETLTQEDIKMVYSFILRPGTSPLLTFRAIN

The test deals with aldosterone synthase (Homo sapiens, UniProt P19099). Kind of test: In vitro aldosterone synthase inhibition: aldosterone production in Ang II-stimulated NCI-H295R cells. The note with it: read-out: AS IC50. The text has this: In particular, the aldosterone synthase inhibitory activities in vitro can be determined by the following assay.
Human adrenocortical carcinoma NCI-H295R cell line is obtained from American Type Culture Collection (Manassas, Va.). Insulin/transferrin/selenium (ITS)-A supplement (100×), DMEM/F-12, antibiotic/antimycotic (100×), and fetal calf serum (FCS) are purchased from Gibco (Grand Island, N.Y.). Anti-mouse PVT scintillation proximity assay (SPA) beads and NBS 96-well plates are obtained from Amersham (Piscataway, N.J.) and Corning (Acton, Mass.), respectively. Solid black 96-well flat bottom plates were purchased from Costar (Corning; NY). Aldosterone and angiotensin (Ang II) are purchased from Sigma (St. Louis, Mo.). D[1,2,6,7-^3H(N)]aldosterone was acquired from PerkinElmer (Boston, Mass.). Nu-serum was a product of BD Biosciences (Franklin Lakes, N.J.). The NADPH regenerating system, dibenzylfluorescein (DBF), and human aromatase Supersomes® are obtained from Gentest (Woburn, Mass.).
For in vitro measurement of aldosterone activity, human adrenocortical carcinoma NCI-H295R cells are seeded in NBS 96-well plates at a density of 25,000 cells/well in 100 μl of a growth medium containing DMEM/F12 supplemented with 10% FCS, 2.5% Nu-serum, 1 μg ITS/ml, and 1× antibiotic/antimycotic. The medium is changed after culturing for 3 days at 37° C. under an atmosphere of 5% CO2/95% air. On the following day, cells are rinsed with 100 μl of DMEM/F12 and incubated with 100 μl of treatment medium containing 1 μM Ang II and a compound at different concentrations in quadruplicate wells at 37° C. for 24 hr. At the end of incubation, 50 μl of medium is withdrawn from each well for measurement of aldosterone production by an RIA using mouse anti-aldosterone monoclonal antibodies.
Measurement of aldosterone activity can also be performed using a 96-well plate format. Each test sample is incubated with 0.02 μCi of D-[1,2,6,7-^3H(N)]aldosterone and 0.3 μg of anti-aldosterone antibody in phosphate-buffered saline (PBS) containing 0.1% Triton X-100, 0.1% bovine serum albumin, and 12% glycerol in a total volume of 200 μl at room temperature for 1 hr. Anti-mouse PVT SPA beads (50 μl) are then added to each well and incubated overnight at room temperature prior to counting in a Microbeta plate counter. The amount of aldosterone in each sample is calculated by comparing with a standard curve generated using known quantities of the hormone.
As to `CCCC1(c2ccc(C#N)cc2OC)C(=O)N(Cc2cccc(C)c2)Cc2cncn21` (stereo not shown), the IC50 is 9 nM. For `CCCC1(c2ccc(C#N)cc2OC)C(=O)N(Cc2ccccc2)Cc2cncn21` (stereo not shown), the IC50 was 4 nM. As for `CCCCC1(c2ccccc2OC)C(=O)N(Cc2ccc(F)cc2)Cc2cncn21` (stereo not shown), the IC50 is 8 nM. In the case of `CCC1(c2ccc(C#N)cc2Cl)C(=O)N(Cc2ccccc2)Cc2cncn21` (stereo not shown), the IC50 stood at 41 nM.

Source of the values: patent publication US20100240641A1, “Aldosterone Synthase and/or 11B-hydroxylase Inhibitors” (priority 2006, published 2010).
